Values quoted from earlier work as cited in patent publication US20070043105A1, “Preventive for cerebal stroke recurrence” (ASTELLAS PHARMA INC., priority 2003, published 2007).
At least one structure is not confirmed: it was looked up by name or label, or the drawing left a doubt.

Legend:
[1] = tested on: subjects of large-scale clinical tests; settings: cited from earlier work
[2] = tested on: hypercholesterolemia cases having a cardiac infarction attack or an unstable angina attack within 3 to 36 months; settings: cited from earlier work
[3] = tested on: cases after cardiac infarction; settings: cases with ischemic heart disease; cited from earlier work
[4] = tested on: cardiovascular disorder or cerebral stroke high-risk elderly cases of 70 years or more; settings: cited from earlier work
[5] = tested on: high-cholesterol cases having an ischemic heart disease; settings: cited from earlier work
[6] = tested on: cases of coronary arteritis, obstructive arteritis or diabetes with ordinary LDL-cholesterol level; settings: subjects with an normal cholesterol level; cited from earlier work

Question: What does the source list for `CC[C@H](C)C(=O)O[C@H]1C[C@H](O)C=C2C=C[C@H](C)[C@H](CC[C@@H](O)C[C@@H](O)CC(=O)O)[C@H]21` [pravastatin]?
Answer: hemorrhage-type stroke and indefinite-type stroke ([1]; in vivo): no difference; non-hemorrhage cerebral stroke attack (primary prevention) ([1]; irrespective of the lipid level of the subjects): effective for preventing non-hemorrhage cerebral stroke attack; risk of recurrence of cerebral stroke or transient ischemic attack (TIA) ([2]; cases with ischemic heart disease): effective for preventing the risk of recurrence; survival rate and disorder condition after cerebral stroke attack, vs placebo ([2]; in vivo): no difference; risk of recurrence of cerebral stroke or transient ischemic attack (TIA) [3]: effective for preventing the risk of recurrence; risk of TIA recurrence [4]: reduced the risk of TIA recurrence

Question: With `CCC(C)(C)C(=O)O[C@H]1C[C@@H](C)C=C2C=C[C@H](C)[C@H](CC[C@@H]3C[C@@H](O)CC(=O)O3)[C@H]21` [simvastatin] as the compound, how does the “primary prevention of cerebral stroke” value [5] read?
Answer: primary prevention effect for cerebral stroke

Question: And the “primary prevention of cerebral stroke” value [6]?
Answer: has a primary cerebral stroke prevention effect
